Literature values as cited in patent US9956267B2, “Method of treating skeletal dysplasias using vessel dilator” (University of South Florida, priority 2010, dated 2018).
Some entries share one result that the patent states for a list of compounds.

Details: in vivo; cited from earlier work

In the case of `CC[C@H](C)[C@@H]1NC(=O)[C@H](CCCNC(=N)N)NC(=O)[C@H](CC(=O)O)NC(=O)[C@H](CCSC)NC(=O)[C@H](CCCNC(=N)N)NC(=O)CNC(=O)CNC(=O)[C@H](Cc2ccccc2)NC(=O)[C@@H](NC(=O)[C@H](CO)NC(=O)[C@H](CO)NC(=O)[C@H](CCCNC(=N)N)NC(=O)[C@H](CCCNC(=N)N)NC(=O)[C@H](CC(C)C)NC(=O)[C@@H](N)CO)CSSC[C@@H](C(=O)N[C@@H](CC(N)=O)C(=O)N[C@@H](CO)C(=O)N[C@@H](Cc2ccccc2)C(=O)N[C@@H](CCCNC(=N)N)C(=O)N[C@@H](Cc2ccc(O)cc2)C(=O)O)NC(=O)CNC(=O)[C@H](CC(C)C)NC(=O)CNC(=O)[C@H](CO)NC(=O)[C@H](CCC(N)=O)NC(=O)[C@H](C)NC(=O)CNC1=O` [ANP], the “duration of biologic effects” value is listed as less than 30 min.
